Results from publication PMC13142658.
No constants are given. Whether binding was seen depends on the method and setting. In cells and extracts the contact can be indirect. Some binding calls cover weakened binding; strength is not graded here.

By UniProt entry, the sequences of proteins in these tests, tags left out. Where a name states a change or a piece, a line headed by the entry shows the natural chain unless it says otherwise.
UniProt P26450: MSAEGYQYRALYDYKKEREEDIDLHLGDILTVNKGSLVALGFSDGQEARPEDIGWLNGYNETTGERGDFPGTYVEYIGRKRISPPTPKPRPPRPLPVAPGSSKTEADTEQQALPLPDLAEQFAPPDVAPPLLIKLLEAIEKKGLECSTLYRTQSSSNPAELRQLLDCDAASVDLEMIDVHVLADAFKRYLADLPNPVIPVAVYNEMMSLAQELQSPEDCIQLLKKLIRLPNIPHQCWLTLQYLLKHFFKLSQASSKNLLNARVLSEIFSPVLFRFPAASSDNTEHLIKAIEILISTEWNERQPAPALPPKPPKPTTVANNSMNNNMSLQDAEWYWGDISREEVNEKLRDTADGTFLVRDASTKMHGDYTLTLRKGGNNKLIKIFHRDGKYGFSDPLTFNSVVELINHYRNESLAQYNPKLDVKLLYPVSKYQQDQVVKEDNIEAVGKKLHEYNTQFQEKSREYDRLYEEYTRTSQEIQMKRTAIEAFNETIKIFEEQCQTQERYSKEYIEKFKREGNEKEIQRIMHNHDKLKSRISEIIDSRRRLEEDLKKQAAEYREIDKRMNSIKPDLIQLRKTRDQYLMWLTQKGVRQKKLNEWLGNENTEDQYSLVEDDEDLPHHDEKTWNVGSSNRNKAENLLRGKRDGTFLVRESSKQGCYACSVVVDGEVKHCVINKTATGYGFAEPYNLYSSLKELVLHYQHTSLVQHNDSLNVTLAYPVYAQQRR

Target: T1, TACI (mouse (endogenous in mouse splenic B cells)) (UniProt Q9ET35)
T1 sequence: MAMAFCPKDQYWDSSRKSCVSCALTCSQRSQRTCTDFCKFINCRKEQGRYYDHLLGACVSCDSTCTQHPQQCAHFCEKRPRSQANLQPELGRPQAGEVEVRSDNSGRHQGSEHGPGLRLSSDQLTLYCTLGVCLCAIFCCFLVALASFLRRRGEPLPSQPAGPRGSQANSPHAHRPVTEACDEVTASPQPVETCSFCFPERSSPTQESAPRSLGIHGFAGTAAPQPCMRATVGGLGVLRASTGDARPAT
Test: co-IP; goat polyclonal anti-mouse-TACI and protein-G Dynabeads, cleared lysates of 2 x 10^7 LPS blasts (1% IGEPAL CA-630, 150 mM NaCl), 4°C; cells stimulated with APRIL, BAFF (200 ng/ml) or media only for 15 min at 37°C; control IP with normal goat IgG; immunoblot

binding: binds
Substance: PI3Kδ (p85α regulatory subunit and p110δ catalytic subunit) (from UniProt P26450 1-724; O35904 1-1043) (complex)
